# Measurements reported in PubChem BioAssay AID493014 (National Center for Advancing Translational Sciences (NCATS), 2011).
# The whole screen tested about 340,000 compounds, of which about 170 (0.05%) were called active. The inconclusive results got no clear call from the source; some entries with a clear call stand among them for comparison. Calls come from the whole dose curve; as a rule, active = well fitted inhibition curve with a large enough effect in the signal ratio, with a control signal flat (not every such curve was filed as active); inconclusive = small, poorly fitted or top-dose-only effect, or effect the other way, or a change in a side signal; inactive = flat fitted curve, though single readings scatter; the % refers to the signal ratio. Where the call is inconclusive, the potency comes from a doubtful curve fit.
# Assay: qHTS Assay to Find Inhibitors of Chronic Active B-Cell Receptor Signaling;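 for activity change, negative = inhibition: plate controls were basal doxycycline-induced cells for no effect and cells given 10 µM MG132 for full effect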
# Conditions: ABC-DLBCL IkBa-CBG/CBR reporter, luminescence ratio (green luciferase fused to IkBa over red control in TMD8 lymphoma cells), 4 h; activity change, negative = inhibition: at 46.1 µM (top of the series) unless noted
# Summary of the method: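 Compounds up to 46 uM were incubated four hours with TMD8 cells whose green CBG68 luciferase is fused to IkappaBalpha; red CBR luminescence normalised the signal, and concentration-effect curves were fitted to fusion, red and ratio data.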
# Potency is the fitted concentration of half-maximal effect.
Compound,Potency,"activity change, negative = inhibition"
CCOC(=O)/C(=C\c1cccnc1)C(=O)c1cc(C(C)=O)c(Nc2ccccc2)s1,"inconclusive: 7.31 µM [falling, single point]",–
N#C/C(=C\c1ccccc1C(F)(F)F)C(=O)Nc1ccccc1,–,inconclusive: 13.2%
Cn1c(O)c(/C=C2\C=Nc3ccccc32)sc1=Nc1ccc(C(=O)O)cc1,–,inactive: -2.31%
CC1CCCCN1Cc1c(O)ccc2c(=O)c(-c3nc4ccccc4s3)coc12 (stereo not given),–,inconclusive: -15.4%
O=S(=O)(c1cccc(F)c1)N1CCN(c2nc(-c3cccnc3)nc3ccccc23)CC1,–,inconclusive: 5.68%
COc1ccc(NC2CCCN(C(=O)c3ccncc3)C2)cc1 (stereo not given),–,inconclusive: -11.5%
c1cnc2c(OCc3cn4cccnc4n3)cccc2c1,"inconclusive: 0.461 µM [rising, full curve, poor fit]",–
O=S(=O)(NCc1ccc(F)cc1)c1ccc(-c2cnc(C3CC3)o2)cc1,–,inconclusive: -4.29%
COc1ccccc1N1CC(C)(C)C(=O)N(C(=O)c2ccc(Cl)cc2)C1=S,–,inactive: 9.35%
c1ccc(N=Nc2cn[nH]c2-c2ccco2)cc1,"inconclusive: 5.01 µM [rising, full curve, poor fit]",–
Cc1ccc(Sc2oc(/C=N/n3cnnc3)cc2Br)cc1,–,inactive: -17%
CCC(=O)c1ccc(OCC(O)Cn2nc(C)c(C(C)=O)c2C)cc1 (stereo not given),–,inconclusive: -4.16%
CCN1CCc2c(sc(NC(=O)C3CCCCC3)c2C(=O)OC)C1,–,inactive: 0.47%
CC(=O)c1ccc(NC(=S)NC(C)c2ccc(Cl)cc2Cl)cc1 (stereo not given),–,inconclusive: -7.67%
CC(=O)N(Cc1ccc(F)cc1)c1cccc(C)c1C,–,inactive: 1.14%
O=[N+]([O-])c1ccc2nc(-c3ccccc3)oc2c1,–,inconclusive: 5.61%
COc1ccc(-c2nc(CSCC(=O)N3CCN(c4cccc(C)c4C)CC3)c(C)o2)cc1OC,"inconclusive: 17.8 µM [falling, single point]",–
COc1ccc(-c2nc3c4ccccc4n(CC(=O)N4CCN(c5ccccc5OC)CC4)c(=O)n3n2)cc1,–,inactive: 8.09%
CN(C(=O)c1cc(COc2ccc(F)c(F)c2)on1)C1CCOC1 (stereo not given),–,inactive: 1.71%
Cc1ccc(S(=O)(=O)N2[C@@H](c3ccc(F)cc3)C(C(=O)O)=C[C@H]2CC2CCCC2)cc1,"inconclusive: 23.1 µM [falling, single point]",–
Cc1ccccc1OCC(=O)Nc1ccc2c(c1)C(=O)N(CCC(=O)O)C2=O,–,inconclusive: -9.14%
Cc1cc(C)n2nc(C(=O)N3CCCC(N4CCN(c5ccccc5C)CC4)C3)cc2n1 (stereo not given),–,inconclusive: -0.643%
O=C1Nc2ccccc2/C1=C/c1cnc(-c2ccccc2)[nH]1,–,inconclusive: 452%
COC(=O)c1ccc(CNC(=O)Cn2cnnn2)cc1,–,inconclusive: 2.41%
CC(=O)c1ccc(N2CCN(S(=O)(=O)c3ccc4c5c3CC(=O)N5CC(C)S4)CC2)cc1 (stereo not given),–,inconclusive: 0.744%
CCOC(=O)N1CCN(C(=O)c2ccc3c(c2)N(CC)CCS3)CC1,"inconclusive: 0.461 µM [rising, partial curve]",–
C=CCNC(=O)c1cc(-c2ccc3c(c2)OCO3)on1,"inconclusive: 12.6 µM [falling, partial curve, poor fit]",–

Compound,Potency,"activity change, negative = inhibition"
CCCn1c2ccccc2c2nnc(SCc3[nH]c(=O)[nH]c3C(=O)CCCCC(=O)OCC)nc21,"inconclusive: 14.6 µM [falling, single point]",–
COc1cc(O)c2c(c1)OC(c1ccc(O)cc1)CC2=O (stereo not given),"inconclusive: 35.5 µM [falling, single point]",–
Cc1csc(NC(=O)CCCSc2nc3ccccc3s2)n1,"inconclusive: 0.58 µM [rising, full curve]",–
Cc1ccccc1/C=N/Nc1ccnc2cc(Cl)ccc12,–,inactive: -0.99%
Brc1cc2[nH]cnc2c2ccccc12,–,inconclusive: 2.26%
Cc1cc(Nc2nnnn2-c2ccccc2)n(-c2ccccc2)n1,–,inconclusive: -0.768%
CCN(CC)CCN(C(=O)c1ccc2c(c1)CCCC2)c1nc2ccc(F)cc2s1,–,inconclusive: -15.2%
CC/C(C)=N\NC(=O)CNC(=O)c1ccc(Cl)cc1Cl,active: 12.6 µM,–
Cc1ccccc1-n1nc(C)c2cc(C(=O)N3CCN(S(=O)(=O)c4ccccc4)CC3)sc21,–,inconclusive: -4.47%
O=C(NNC(=O)C1CC=CCC1)c1ccccc1O (stereo not given),"inconclusive: 35.5 µM [rising, single point]",–
O=C(Nc1cccc(S(=O)(=O)C(F)F)c1)c1ccc(S(=O)(=O)N2CCCC2)cc1,–,inconclusive: -7.17%
Cc1cccc(CSCCNC(=O)CCSc2ccccc2)c1,–,inconclusive: -7.05%
CCOC(=O)CC[C@H](NC(=O)Cn1cnc2c(OCc3ccccc3)ncnc21)C(=O)OCC,–,inactive: 0.472%
Cc1cc(C)cc(NC(=O)COC(=O)c2ccc(CN3CCCC3=O)cc2)c1,–,inconclusive: 5.38%
Cn1c(CSCc2ccc(Cl)cc2)n[nH]c1=S,–,inactive: 1.5%
O=C(c1cccc2ccccc12)C1CCCN(C(=O)CCCn2cncn2)C1 (stereo not given),–,inactive: 4.52%
O=C(Nc1cc(C(F)(F)F)ccc1Cl)C(Sc1ccccn1)c1ccccc1 (stereo not given),"inconclusive: 11.2 µM [rising, partial curve, poor fit]",–
COC(=O)c1cc(CSC(=N)N)ccc1OCCC(C)C,–,inconclusive: -26.3%
Clc1ccc(Oc2cccc(/C=N/n3cnnc3)c2)cc1,"inconclusive: 29.1 µM [falling, partial curve, poor fit]",–
CSc1ccccc1NC(=O)CN(C)C(=O)COc1cccc2cccnc12,"inconclusive: 29.1 µM [falling, single point]",–
COc1ccc(/C=N/NC(=O)CCC(=O)Nc2ccc(Br)cc2)c(OC)c1,–,inactive: -2.09%
C=CCN1CC(c2nc3ccccc3n2Cc2cccc3ccccc23)CC1=O (stereo not given),–,inconclusive: -20%
CC(C)Oc1ccc(C(CC(=O)O)NC(=O)c2cccs2)cc1 (stereo not given),"inconclusive: 25.9 µM [falling, single point]",–
O=C1C=C(O)c2c(O)cccc2C1=O,–,inconclusive: 0.46%
COCCOCCOCCC(=O)NC1CC2CCC1(C)C2(C)C (stereo not given),–,inconclusive: 0.0313%
CCOc1ccccc1N1CCN(C(=O)c2c(CC)noc2C)CC1,–,inactive: -0.161%
CC1CCN(S(=O)(=O)c2cnc[nH]2)CC1,–,inactive: 1.83%

Compound,Potency,"activity change, negative = inhibition"
CCN1CCN(CCNC(=O)c2ccc(/C=C3\Sc4ccccc4N(Cc4ccccc4F)C3=O)cc2)CC1,"inconclusive: 35.5 µM [falling, single point]",–
CN(CC(=O)Nc1ccccc1C(=O)NC1CC1)Cc1ccc(N(C)C)cc1,–,inconclusive: -0.186%
COc1ccc(-c2nc(Cn3c(SCc4ccccc4F)nc4ccncc43)c(C)o2)cc1,"inconclusive: 9.2 µM [falling, partial curve, poor fit]",–
O=C(CSc1ccccc1)Nc1nnc(-c2ccco2)o1,"inconclusive: 29.1 µM [falling, single point]",–
CCCCn1c(SCC(=O)Nc2cc(C)on2)nc2ccccc2c1=O,–,inactive: 7.49%
O=S(Cc1ccc(Br)cc1)Cc1nnc(SCc2c(F)cccc2Cl)n1-c1ccccc1 (stereo not given),–,inconclusive: -15.7%
CNCCC=C1c2ccccc2CCc2ccccc21,"inconclusive: 35.5 µM [falling, single point]",–
CN(c1ccc(O)cc1)c1nc(-c2ccccc2)cs1,"inconclusive: 23.1 µM [falling, partial curve]",–
CN(Cc1ccccc1)S(=O)(=O)c1ccc(OCC(=O)Nc2cccc([N+](=O)[O-])c2)cc1,–,inconclusive: 1.87%
COc1cccc(-c2nc(NCC3CCCO3)c3ccccc3n2)c1O (stereo not given),–,inactive: 11.5%
Cc1cccc(C(=O)N[C@H](C(=O)OCc2cc(=O)n3c(n2)sc2ccccc23)C(C)C)c1,–,inconclusive: 7.84%
CC(CCOC1=NS(=O)(=O)c2ccccc21)NC(=O)C(=O)Nc1ccccc1 (stereo not given),"inconclusive: 12.6 µM [falling, partial curve]",–
COc1cc(CNC(=O)CCCC/C=C\C(C)C)ccc1O,–,inactive: 0.861%
CCCc1cc(=O)n2[nH]c(-c3ccco3)nc2n1,"inconclusive: 23.1 µM [falling, single point]",–
O=C(Nc1csnn1)c1csnn1,–,inactive: -7.24%
C/C(N)=C(/C#N)C(=O)COC(=O)CNS(=O)(=O)c1c(F)cccc1F,–,inconclusive: 18.6%
C=CCN1C(=O)c2ccc(C(=O)N(CC)CC(=O)Nc3cc(Cl)ccc3C)cc2C1=O,–,inactive: 9.64%
CC[C@]1(O)CC2CN(CCc3c([nH]c4ccccc34)[C@@](C(=O)OC)(c3cc4c(cc3OC)N(C=O)[C@H]3[C@@](O)(C(=O)OC)[C@H](OC(C)=O)[C@]5(CC)C=CCN6CC[C@]43[C@@H]65)C2)C1 (stereo not given in full),"inconclusive: 0.1 µM [falling, full curve, poor fit]",–
OCCN1CCN(CC(O)COc2ccc3c(c2)OCO3)CC1 (stereo not given),–,inconclusive: 3.88%
c1csc(CCNc2ncnc3sc4c(c23)CCC4)c1,–,inactive: 16.1%
NC(=O)c1sc2nc3c(c(-c4ccc(Cl)cc4)c2c1N)CCCC3,–,inactive: 29.6%
COc1cc2c(cc1OC)C1(CCCC1)C(N)=C2C#N,"inconclusive: 25.9 µM [falling, partial curve]",–
N#Cc1ccc2ccn(CC(=O)NC3CCCCC3)c2c1,–,inactive: 0.801%
COCCN(C(=O)C1CCN(C(=O)c2ccccc2C)CC1)c1c(N)n(CC(C)C)c(=O)[nH]c1=O,–,inconclusive: 12.3%
O=Cc1cn(CC(=O)Nc2ccc3c(c2)OCO3)c2ccccc12,–,inactive: -5.49%
COc1cccc2c1OCC/C2=N\NC(=O)C(C)Oc1ccc([N+](=O)[O-])cc1 (stereo not given),–,inconclusive: 6.76%
